In the assay the target is adenylyl cyclase 5 (AC5), human (human (endogenous in adipose arterial myocytes)) (UniProt O95622). Description: proximity ligation; Duolink in situ PLA on freshly dissociated human male and female adipose arterial myocytes, fixed with 3% glyoxal and permeabilised; two primary antibodies; signal when proteins are within 40 nm; puncta per cell area.

Sequences of proteins named here, by UniProt entry; tags and fusion partners are left off.
UniProt O95622: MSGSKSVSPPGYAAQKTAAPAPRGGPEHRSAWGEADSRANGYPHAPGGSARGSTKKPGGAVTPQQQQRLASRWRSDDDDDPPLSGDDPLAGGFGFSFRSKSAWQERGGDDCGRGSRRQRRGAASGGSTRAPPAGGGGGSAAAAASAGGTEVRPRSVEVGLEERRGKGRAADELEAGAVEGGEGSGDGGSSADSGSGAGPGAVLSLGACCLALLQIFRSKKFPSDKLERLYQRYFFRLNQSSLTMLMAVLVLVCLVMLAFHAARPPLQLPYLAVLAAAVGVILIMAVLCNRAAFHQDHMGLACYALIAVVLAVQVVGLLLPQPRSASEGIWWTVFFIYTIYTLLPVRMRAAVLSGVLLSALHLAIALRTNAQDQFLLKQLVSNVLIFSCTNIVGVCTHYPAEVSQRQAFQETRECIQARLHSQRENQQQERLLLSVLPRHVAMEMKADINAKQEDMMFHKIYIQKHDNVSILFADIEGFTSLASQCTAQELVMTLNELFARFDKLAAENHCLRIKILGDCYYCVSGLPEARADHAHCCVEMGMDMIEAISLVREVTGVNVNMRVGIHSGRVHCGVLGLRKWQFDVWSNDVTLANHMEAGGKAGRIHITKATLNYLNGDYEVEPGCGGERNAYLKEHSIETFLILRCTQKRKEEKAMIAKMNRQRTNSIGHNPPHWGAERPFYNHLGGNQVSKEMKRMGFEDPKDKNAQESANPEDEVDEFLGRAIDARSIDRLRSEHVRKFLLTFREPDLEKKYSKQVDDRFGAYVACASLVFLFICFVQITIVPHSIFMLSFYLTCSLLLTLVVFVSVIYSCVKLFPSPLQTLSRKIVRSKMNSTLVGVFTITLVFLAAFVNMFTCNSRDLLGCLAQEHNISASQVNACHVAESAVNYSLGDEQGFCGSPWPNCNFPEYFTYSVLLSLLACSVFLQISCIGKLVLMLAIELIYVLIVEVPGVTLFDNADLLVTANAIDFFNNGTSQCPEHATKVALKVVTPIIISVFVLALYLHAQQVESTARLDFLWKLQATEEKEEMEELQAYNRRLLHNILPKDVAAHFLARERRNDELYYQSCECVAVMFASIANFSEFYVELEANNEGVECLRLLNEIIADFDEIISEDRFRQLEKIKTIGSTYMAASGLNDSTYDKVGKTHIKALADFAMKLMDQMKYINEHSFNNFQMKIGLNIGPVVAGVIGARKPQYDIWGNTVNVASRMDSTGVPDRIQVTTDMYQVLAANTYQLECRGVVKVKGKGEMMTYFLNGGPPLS

The values that follow come from article PMC7575592.

No constants are given. Whether binding was seen depends on the method and setting. Binding seen in cells or lysates may run through a third protein. Some results given as binding are weak or reduced against the parent protein; the word gives no strength.

B1: P2Y11 receptor, human (receptor, UniProt Q96G91 1-374)
chain: MAANVSGAKSCPANFLAAADDKLSGFQGDFLWPILVVEFLVAVASNGLALYRFSIRKQRPWHPAVVFSVQLAVSDLLCALTLPPLAAYLYPPKHWRYGEAACRLERFLFTCNLLGSVIFITCISLNRYLGIVHPFFARSHLRPKHAWAVSAAGWVLAALLAMPTLSFSHLKRPQQGAGNCSVARPEACIKCLGTADHGLAAYRAYSLVLAGLGCGLPLLLTLAAYGALGRAVLRSPGMTVAEKLRVAALVASGVALYASSYVPYHIMRVLNVDARRRWSTRCPSFADIAQATAALELGPYVGYQVMRGLMPLAFCVHPLLYMAAVPSLGCCCRHCPGYRDSWNPEDAKSTGQALPLNATAAPKPSEPQSRELSQ
Take B1: the binding result was “binds”.
